Experimental data published in the supplement of paper PMC10849652.
This is one part of the list.

By UniProt entry, the sequences of proteins in these tests, tags left out. Where a name states a change or a piece, a line headed by the entry shows the natural chain unless it says otherwise.
UniProt Q53GS9: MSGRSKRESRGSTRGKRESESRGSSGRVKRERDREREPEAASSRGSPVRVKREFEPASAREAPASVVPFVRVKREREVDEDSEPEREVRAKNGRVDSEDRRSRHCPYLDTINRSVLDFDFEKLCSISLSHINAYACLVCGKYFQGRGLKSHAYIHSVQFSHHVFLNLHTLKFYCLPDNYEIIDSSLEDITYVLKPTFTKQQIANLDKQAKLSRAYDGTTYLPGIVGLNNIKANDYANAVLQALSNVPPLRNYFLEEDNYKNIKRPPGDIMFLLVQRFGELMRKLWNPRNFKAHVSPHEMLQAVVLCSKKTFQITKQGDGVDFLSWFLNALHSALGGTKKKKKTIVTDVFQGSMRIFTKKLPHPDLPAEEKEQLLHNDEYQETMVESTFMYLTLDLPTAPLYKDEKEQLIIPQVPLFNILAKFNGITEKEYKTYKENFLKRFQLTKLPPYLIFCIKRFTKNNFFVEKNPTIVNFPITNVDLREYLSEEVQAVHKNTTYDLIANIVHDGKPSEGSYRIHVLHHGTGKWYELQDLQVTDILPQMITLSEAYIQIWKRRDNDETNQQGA
UniProt P63027, whole entry, looked up: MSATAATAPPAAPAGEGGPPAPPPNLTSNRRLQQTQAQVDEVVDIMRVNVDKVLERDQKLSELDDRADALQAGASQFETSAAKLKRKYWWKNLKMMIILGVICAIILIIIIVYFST
UniProt Q9Y3C8: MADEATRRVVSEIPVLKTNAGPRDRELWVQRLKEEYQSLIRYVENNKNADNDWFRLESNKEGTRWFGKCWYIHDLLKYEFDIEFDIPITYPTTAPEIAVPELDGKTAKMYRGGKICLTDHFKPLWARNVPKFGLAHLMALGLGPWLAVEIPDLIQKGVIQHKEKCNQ
UniProt P07919: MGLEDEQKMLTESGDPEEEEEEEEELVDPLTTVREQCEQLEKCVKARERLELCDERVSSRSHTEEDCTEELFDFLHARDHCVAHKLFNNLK
UniProt P15374: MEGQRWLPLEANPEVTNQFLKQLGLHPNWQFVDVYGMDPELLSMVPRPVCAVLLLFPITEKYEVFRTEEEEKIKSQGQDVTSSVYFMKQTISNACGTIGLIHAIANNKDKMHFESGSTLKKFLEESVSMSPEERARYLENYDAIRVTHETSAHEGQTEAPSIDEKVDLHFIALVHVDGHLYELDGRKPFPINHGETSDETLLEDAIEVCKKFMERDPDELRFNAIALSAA
UniProt P50552: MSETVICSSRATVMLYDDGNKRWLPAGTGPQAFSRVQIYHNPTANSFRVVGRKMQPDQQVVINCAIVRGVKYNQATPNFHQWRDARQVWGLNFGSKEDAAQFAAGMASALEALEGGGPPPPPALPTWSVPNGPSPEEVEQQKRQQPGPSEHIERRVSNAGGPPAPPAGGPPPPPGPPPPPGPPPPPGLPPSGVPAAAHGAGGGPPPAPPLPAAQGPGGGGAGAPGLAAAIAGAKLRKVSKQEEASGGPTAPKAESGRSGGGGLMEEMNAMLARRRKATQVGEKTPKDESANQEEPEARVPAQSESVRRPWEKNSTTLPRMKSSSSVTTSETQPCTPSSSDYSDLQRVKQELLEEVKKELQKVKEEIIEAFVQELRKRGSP
UniProt Q8IX04: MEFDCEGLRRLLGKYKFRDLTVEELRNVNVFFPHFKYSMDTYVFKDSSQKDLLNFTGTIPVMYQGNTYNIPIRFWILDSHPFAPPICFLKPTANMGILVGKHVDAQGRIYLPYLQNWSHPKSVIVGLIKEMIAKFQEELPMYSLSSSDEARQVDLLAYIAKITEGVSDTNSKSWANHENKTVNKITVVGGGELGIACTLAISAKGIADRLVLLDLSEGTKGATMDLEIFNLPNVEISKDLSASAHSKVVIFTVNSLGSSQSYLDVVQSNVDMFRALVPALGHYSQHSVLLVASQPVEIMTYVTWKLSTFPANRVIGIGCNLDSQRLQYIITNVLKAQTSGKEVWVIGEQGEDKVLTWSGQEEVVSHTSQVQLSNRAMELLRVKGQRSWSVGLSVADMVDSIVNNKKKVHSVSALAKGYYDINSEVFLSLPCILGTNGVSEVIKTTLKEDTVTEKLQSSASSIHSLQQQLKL
UniProt Q92900: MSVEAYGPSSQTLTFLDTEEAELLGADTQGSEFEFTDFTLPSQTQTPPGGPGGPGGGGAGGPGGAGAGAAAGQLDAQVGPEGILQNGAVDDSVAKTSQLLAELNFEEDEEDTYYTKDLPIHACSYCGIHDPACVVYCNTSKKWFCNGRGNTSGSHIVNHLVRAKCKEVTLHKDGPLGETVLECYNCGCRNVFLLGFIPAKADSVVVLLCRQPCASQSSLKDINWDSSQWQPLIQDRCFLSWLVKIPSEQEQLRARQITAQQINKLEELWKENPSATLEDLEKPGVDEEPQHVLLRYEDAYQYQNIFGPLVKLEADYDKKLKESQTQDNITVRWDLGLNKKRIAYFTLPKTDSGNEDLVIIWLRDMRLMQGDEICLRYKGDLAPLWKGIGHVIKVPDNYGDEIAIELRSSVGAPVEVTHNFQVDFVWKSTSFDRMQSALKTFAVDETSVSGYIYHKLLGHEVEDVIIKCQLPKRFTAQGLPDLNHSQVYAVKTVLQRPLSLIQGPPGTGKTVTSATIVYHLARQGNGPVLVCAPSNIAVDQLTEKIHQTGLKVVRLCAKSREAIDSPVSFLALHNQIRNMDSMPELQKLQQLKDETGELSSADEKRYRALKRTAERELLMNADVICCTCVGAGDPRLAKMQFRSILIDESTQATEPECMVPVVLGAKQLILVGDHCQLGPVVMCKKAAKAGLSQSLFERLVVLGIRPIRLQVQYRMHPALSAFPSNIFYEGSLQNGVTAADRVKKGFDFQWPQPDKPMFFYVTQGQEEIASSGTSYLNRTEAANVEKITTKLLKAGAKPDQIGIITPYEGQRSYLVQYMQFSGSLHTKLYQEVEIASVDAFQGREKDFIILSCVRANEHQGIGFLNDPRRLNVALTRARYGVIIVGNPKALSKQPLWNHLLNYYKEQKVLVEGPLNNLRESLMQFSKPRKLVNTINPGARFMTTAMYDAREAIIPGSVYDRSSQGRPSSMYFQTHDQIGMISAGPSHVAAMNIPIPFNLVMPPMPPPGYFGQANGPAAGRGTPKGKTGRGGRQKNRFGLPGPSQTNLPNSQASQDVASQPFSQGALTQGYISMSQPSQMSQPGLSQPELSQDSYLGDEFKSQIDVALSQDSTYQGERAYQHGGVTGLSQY
UniProt Q9H3U1: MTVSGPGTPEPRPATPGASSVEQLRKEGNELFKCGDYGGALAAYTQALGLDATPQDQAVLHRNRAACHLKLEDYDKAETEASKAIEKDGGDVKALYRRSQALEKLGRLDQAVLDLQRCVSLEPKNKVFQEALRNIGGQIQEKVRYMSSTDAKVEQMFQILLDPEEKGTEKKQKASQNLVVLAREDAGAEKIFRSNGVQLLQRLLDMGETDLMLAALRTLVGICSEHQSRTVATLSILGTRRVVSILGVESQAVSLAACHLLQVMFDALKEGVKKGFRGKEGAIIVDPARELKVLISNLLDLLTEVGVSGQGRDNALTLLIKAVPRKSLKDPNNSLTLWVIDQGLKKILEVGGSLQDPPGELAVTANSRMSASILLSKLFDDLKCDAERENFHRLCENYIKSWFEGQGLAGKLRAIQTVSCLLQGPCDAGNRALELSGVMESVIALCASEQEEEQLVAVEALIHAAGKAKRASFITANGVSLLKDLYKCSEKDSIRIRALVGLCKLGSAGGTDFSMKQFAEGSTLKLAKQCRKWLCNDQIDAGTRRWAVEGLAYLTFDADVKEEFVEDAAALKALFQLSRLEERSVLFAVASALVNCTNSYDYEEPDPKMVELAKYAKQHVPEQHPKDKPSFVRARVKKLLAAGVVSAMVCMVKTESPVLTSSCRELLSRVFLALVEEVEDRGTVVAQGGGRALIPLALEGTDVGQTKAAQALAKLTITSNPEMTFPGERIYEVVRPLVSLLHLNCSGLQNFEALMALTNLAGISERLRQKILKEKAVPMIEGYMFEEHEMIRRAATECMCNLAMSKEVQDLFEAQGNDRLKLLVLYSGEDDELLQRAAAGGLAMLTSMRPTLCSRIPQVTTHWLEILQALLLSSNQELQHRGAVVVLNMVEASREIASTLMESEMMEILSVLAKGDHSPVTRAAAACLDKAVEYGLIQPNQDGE
UniProt P40818: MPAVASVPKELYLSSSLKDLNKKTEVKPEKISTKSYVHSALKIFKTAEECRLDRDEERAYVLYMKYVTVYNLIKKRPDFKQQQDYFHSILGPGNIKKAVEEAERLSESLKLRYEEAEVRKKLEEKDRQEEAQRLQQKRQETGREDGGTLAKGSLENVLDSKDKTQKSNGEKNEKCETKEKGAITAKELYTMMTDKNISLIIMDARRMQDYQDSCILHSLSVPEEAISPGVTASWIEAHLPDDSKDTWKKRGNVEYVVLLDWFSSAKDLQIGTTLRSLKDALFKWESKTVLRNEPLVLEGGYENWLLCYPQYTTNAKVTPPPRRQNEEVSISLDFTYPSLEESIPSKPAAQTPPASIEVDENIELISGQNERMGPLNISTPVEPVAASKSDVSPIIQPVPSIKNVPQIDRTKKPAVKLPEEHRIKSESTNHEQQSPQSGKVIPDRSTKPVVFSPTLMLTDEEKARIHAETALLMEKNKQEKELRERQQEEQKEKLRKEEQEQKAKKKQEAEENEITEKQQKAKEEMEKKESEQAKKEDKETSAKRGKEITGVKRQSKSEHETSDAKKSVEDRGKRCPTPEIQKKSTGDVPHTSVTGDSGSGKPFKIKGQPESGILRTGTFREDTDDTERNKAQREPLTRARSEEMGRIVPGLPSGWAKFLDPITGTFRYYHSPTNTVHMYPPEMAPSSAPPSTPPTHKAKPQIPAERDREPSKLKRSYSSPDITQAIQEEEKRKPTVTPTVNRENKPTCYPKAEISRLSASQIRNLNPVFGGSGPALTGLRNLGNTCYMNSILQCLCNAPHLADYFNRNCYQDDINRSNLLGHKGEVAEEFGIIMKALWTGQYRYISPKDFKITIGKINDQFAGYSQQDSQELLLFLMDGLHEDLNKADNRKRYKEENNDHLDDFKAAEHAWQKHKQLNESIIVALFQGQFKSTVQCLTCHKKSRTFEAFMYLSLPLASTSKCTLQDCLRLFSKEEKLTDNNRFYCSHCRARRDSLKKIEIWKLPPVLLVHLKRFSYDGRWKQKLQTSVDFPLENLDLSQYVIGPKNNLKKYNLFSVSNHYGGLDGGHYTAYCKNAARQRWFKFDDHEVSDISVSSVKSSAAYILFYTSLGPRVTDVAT
UniProt Q70J99: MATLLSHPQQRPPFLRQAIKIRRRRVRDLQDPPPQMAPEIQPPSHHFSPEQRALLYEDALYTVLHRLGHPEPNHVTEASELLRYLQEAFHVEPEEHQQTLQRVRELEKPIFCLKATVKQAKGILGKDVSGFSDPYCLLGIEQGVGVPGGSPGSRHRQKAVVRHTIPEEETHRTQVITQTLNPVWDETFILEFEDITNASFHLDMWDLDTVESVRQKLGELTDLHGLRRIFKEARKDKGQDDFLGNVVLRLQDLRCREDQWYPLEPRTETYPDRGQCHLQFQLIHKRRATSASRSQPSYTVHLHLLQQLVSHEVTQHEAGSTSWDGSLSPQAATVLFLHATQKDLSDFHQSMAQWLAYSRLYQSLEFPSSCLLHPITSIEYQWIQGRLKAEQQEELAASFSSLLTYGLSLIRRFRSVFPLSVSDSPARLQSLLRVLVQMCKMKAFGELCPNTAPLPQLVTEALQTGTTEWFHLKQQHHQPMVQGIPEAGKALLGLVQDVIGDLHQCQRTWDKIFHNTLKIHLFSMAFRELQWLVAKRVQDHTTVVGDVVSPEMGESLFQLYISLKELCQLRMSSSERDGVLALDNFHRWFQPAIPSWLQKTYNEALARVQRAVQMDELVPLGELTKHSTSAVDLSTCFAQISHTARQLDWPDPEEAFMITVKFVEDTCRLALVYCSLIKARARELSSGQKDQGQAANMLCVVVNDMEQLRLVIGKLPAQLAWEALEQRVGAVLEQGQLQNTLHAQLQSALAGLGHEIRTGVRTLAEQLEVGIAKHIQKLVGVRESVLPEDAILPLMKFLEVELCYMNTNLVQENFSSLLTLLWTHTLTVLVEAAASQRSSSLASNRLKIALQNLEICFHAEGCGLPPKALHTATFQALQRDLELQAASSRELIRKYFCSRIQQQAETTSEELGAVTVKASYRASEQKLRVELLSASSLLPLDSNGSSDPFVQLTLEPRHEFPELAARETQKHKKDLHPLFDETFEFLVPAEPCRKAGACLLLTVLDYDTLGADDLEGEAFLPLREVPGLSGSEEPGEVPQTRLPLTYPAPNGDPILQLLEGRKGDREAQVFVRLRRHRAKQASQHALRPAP
UniProt Q04323: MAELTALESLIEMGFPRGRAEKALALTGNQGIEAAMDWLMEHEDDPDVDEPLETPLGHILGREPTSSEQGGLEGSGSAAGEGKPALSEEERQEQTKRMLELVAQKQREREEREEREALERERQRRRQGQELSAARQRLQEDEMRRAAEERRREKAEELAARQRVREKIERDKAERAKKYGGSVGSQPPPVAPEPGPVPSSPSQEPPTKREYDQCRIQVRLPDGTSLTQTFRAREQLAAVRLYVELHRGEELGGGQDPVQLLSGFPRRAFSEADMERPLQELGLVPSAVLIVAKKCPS

compound: Cc1cc(Nc2cc(CN3CCOCC3)c3nc(C)c(Cc4ccc(Cl)cc4F)n3n2)n[nH]1 [gandotinib]; experiment: log2 fold change, soluble protein after heating vs DMSO (PISA); higher = thermal stabilisation; K562 cells, 10 uM, 30 min; active = over 0.2 and 3.5 SD of the protein, either way, in both replicates (recomputed)
Procedure, shortened: (§1)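 K562 cells (2×10^6 cells/mL) were treated with 10 μM compound for 30 min, and aliquots were heated for 3 min over 48°C-58°C. Pooled aliquots were extracted in PBS with 0.5% NP-40 at 4°C, and the supernatant after 21,000xg for 90 min was measured by TMTpro 16plex LC-MS/MS with channel sums equalised. Reported thermal stability, relative to control samples and from duplicates, is a log2 fold change.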

log2 fold change, inactive:
VBP1 (UniProt P61758) 0.01
USP39 (UniProt Q53GS9) 0.076
VAMP2 (UniProt P63027) 0.033
UFC1 (UniProt Q9Y3C8) 0.037
UQCRH (UniProt P07919) -0.167
USP10 isoform 2 (UniProt Q14694) 0.007
UCHL3 (UniProt P15374) 0.011
VASP (UniProt P50552) -0.097
UEVLD (UniProt Q8IX04) 0.153
UPF1 (UniProt Q92900) 0.006
UNC45A (UniProt Q9H3U1) -0.068
USP8 (UniProt P40818) -0.04
UNC13D isoform 3 (UniProt Q70J99) 0.08
UBXN1 (UniProt Q04323) -0.013

compound: Cc1cc(Nc2cc(N3CCN(C)CC3)nc(Sc3ccc(NC(=O)C4CC4)cc3)n2)n[nH]1 [tozasertib]; experiment: as above
Procedure, shortened: as §1

log2 fold change, inactive:
UBXN7 (UniProt O94888) 0.002
URGCP (UniProt Q8TCY9) -0.035
UBXN4 (UniProt Q92575) -0.012
VANGL1 (UniProt Q8TAA9) -0.035
UCK1 (UniProt Q9HA47) -0.006
UGP2 (UniProt Q16851) -0.008
UQCRC1 (UniProt P31930) -0.005
VAPA isoform 2 (UniProt Q9P0L0) 0.01
UBQLN4 (UniProt Q9NRR5) 0.007
VAMP4 (UniProt O75379) -0.018
VAPB (UniProt O95292) -0.006
UVRAG (UniProt Q9P2Y5) 0.053
UQCRB (UniProt P14927) 0.009
VCL (UniProt P18206) -0.022
UIMC1 (UniProt Q96RL1) -0.017
UBR5 (UniProt O95071) 0.222
USP5 (UniProt P45974) 0.034
UQCRFS1 (UniProt P47985) -0.033
UMPS (UniProt P11172) 0.021
UQCRC2 (UniProt P22695) -0.001
UBQLN2 (UniProt Q9UHD9) 0.088
UQCC1 (UniProt Q9NVA1) 0.032
VAT1 (UniProt Q99536) -0.013
UBL5 (UniProt Q9BZL1) 0.039
VBP1 (UniProt P61758) -0.031
USP39 (UniProt Q53GS9) -0.012
VAMP2 (UniProt P63027) 0.071
UFC1 (UniProt Q9Y3C8) 0.011
UQCRH (UniProt P07919) 0.012
USP10 isoform 2 (UniProt Q14694) -0.015
UCHL3 (UniProt P15374) 0.082
VASP (UniProt P50552) 0.027
UEVLD (UniProt Q8IX04) 0.007
UPF1 (UniProt Q92900) 0.012
UNC45A (UniProt Q9H3U1) 0.089
USP8 (UniProt P40818) -0.02
UNC13D isoform 3 (UniProt Q70J99) 0.001
UBXN1 (UniProt Q04323) 0.022

compound: Cc1cc(SCc2sc(-c3ccc(C(F)(F)F)cc3)nc2C)ccc1OCC(=O)O; experiment: as above
Procedure, shortened: as §1

log2 fold change, inactive:
UBXN7 (UniProt O94888) 0.023
URGCP (UniProt Q8TCY9) 0.04
UBXN4 (UniProt Q92575) -0.019
VANGL1 (UniProt Q8TAA9) 0.005
UCK1 (UniProt Q9HA47) -0.053
UGP2 (UniProt Q16851) -0.024
UQCRC1 (UniProt P31930) -0.041
VAPA isoform 2 (UniProt Q9P0L0) -0.024
UBQLN4 (UniProt Q9NRR5) -0.032
VAMP4 (UniProt O75379) -0.051
VAPB (UniProt O95292) -0.03
UVRAG (UniProt Q9P2Y5) 0
UQCRB (UniProt P14927) -0.065
VCL (UniProt P18206) -0.023
UIMC1 (UniProt Q96RL1) 0.117
UBR5 (UniProt O95071) 0.046
USP5 (UniProt P45974) 0.013
UQCRFS1 (UniProt P47985) -0.055
UMPS (UniProt P11172) -0.006
UQCRC2 (UniProt P22695) -0.003
UBQLN2 (UniProt Q9UHD9) -0.032
UQCC1 (UniProt Q9NVA1) 0.022
VAT1 (UniProt Q99536) 0.008
UBL5 (UniProt Q9BZL1) 0.028
VBP1 (UniProt P61758) -0.003
USP39 (UniProt Q53GS9) 0.02
VAMP2 (UniProt P63027) 0.069
UFC1 (UniProt Q9Y3C8) -0.032
UQCRH (UniProt P07919) -0.057
USP10 isoform 2 (UniProt Q14694) 0.042
UCHL3 (UniProt P15374) 0.064
VASP (UniProt P50552) 0.166
UEVLD (UniProt Q8IX04) -0.001
UPF1 (UniProt Q92900) 0.022
UNC45A (UniProt Q9H3U1) 0.16
USP8 (UniProt P40818) 0.107
UNC13D isoform 3 (UniProt Q70J99) 0.123
UBXN1 (UniProt Q04323) 0.026
